## Library screen at single concentrations

Amino acid sequences for entries named in this document (tags omitted). Residues count along the entry.
UniProt P9WNZ1, whole entry: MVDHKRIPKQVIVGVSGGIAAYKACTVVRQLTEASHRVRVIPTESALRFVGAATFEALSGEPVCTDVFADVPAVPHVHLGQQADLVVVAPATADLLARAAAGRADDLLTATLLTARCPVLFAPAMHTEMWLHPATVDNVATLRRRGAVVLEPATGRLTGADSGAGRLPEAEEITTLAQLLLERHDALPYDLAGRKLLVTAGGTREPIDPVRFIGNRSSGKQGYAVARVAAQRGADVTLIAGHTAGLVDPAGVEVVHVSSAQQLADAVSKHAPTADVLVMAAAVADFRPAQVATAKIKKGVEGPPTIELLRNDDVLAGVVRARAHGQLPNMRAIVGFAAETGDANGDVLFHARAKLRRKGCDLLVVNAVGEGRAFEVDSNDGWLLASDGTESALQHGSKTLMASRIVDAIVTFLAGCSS
UniProt P9WFT3, whole entry: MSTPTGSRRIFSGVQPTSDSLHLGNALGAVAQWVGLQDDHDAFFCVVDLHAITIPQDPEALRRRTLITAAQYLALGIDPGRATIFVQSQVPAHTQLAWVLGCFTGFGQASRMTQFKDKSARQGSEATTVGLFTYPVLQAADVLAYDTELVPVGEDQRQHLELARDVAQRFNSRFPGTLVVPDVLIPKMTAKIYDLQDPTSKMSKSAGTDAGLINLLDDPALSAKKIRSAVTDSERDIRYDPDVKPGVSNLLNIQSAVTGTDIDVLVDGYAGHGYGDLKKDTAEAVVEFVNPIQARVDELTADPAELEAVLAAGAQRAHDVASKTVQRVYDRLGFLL
UniProt P9WPC5, whole entry: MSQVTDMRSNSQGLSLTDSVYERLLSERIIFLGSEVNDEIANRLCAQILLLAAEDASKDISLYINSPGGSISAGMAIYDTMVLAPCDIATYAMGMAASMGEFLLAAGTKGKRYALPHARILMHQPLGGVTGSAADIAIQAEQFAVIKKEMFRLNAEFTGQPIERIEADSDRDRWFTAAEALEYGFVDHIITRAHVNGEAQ
UniProt P9WPC3, whole entry partner: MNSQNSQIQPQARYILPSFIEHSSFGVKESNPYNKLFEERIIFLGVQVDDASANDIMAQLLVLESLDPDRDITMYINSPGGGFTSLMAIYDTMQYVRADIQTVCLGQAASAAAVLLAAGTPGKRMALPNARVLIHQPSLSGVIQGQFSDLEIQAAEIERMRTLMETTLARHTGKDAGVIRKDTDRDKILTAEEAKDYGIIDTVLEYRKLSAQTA
UniProt A4I591, 1-473: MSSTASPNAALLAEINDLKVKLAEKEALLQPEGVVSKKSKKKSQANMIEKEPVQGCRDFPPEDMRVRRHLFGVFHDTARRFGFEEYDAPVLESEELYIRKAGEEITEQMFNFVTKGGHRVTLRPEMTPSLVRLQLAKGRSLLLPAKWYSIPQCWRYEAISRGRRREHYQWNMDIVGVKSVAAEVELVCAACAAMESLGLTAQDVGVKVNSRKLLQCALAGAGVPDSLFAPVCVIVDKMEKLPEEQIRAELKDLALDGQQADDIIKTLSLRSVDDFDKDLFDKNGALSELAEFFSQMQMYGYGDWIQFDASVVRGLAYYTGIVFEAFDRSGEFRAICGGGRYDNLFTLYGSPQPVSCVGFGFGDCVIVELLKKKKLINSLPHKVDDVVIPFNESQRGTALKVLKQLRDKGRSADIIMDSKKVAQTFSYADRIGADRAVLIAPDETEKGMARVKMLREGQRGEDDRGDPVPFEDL
UniProt Q4DA54, 1-478: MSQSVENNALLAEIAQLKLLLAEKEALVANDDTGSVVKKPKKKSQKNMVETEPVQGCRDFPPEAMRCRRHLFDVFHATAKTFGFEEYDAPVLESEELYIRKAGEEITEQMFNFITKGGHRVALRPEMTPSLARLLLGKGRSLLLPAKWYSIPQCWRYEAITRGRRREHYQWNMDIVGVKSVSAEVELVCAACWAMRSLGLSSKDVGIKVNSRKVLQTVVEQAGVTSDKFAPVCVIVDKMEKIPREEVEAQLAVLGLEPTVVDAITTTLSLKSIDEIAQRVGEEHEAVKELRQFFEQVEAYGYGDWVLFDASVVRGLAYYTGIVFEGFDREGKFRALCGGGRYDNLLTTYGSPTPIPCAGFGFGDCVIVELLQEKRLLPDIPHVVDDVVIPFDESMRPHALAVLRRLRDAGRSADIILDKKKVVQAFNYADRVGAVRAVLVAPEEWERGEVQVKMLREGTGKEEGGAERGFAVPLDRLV

Data taken from ChEMBL document CHEMBL3988442, “University of Dundee, Small-Polar-MMV Screening Library” (2021).

CoaBC: 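Enzyme assay of CoaBC with a phosphate dye (Biomol Green) read at 650 nm. Target: Coenzyme A biosynthesis protein CoaBC, Mycobacterium tuberculosis (UniProt P9WNZ1). Compounds at 30 µM. Direction is inferred from only a few compounds that gave an IC50; most scored high, so higher reads as stronger inhibition. Most strong results did not repeat in a second test. Of about 67,000 compounds tested this way, about 40 (0.06%) reached 50% or more in at least one test.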
MtTrpRS: 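Tryptophan-tRNA ligase, Mycobacterium tuberculosis (UniProt P9WFT3). Enzyme assay of tryptophanyl-tRNA synthetase; the read-out is not stated. Concentration: 10 µM. Higher most likely means stronger inhibition; the record gives no direction and few retests gave an IC50. Size under these conditions: about 65,000 compounds, about 64 of them at 50% or above in at least one test.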
ClpP1P2: 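Protease assay of ClpP1P2, read by the AMC dye that it sets free. Target: ClpP1P2, Mycobacterium tuberculosis (UniProt P9WPC5 and UniProt P9WPC3). Concentration: 50 µM. Higher reads as stronger inhibition, judged from the few compounds that gave an IC50. Most other retested compounds had strongly negative values. Size under these conditions: about 69,000 compounds, about 10 of them at 50% or above in at least one test.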
LiHisRS: 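Histidine-tRNA ligase, Leishmania infantum (UniProt A4I591). Enzyme assay of histidyl-tRNA synthetase; the read-out is not stated. Compounds at 30 µM. The record gives no direction; compounds that gave an IC50 in retests scored well above the rest, so higher reads as stronger inhibition. The assay is labelled LdHisRS but filed under L. infantum. Of about 69,000 compounds tested this way, about 410 (0.6%) reached 50% or more in at least one test.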
TcHisRS: 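Enzyme assay of histidyl-tRNA synthetase; the read-out is not stated. Target: Histidine-tRNA ligase, Trypanosoma cruzi CL Brener (UniProt Q4DA54). Concentration: 30 µM. Higher reads as stronger inhibition (inferred: compounds with an IC50 in retests scored well above the rest). Of about 69,000 compounds tested this way, about 31 (0.045%) reached 50% or more in at least one test.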

The filed quantity is “Percent Effect” (%). The controls that fix the scale are not given in the record; negative values are as filed. Compounds were drawn at random from those tested, without regard to their results. Two or more numbers in one place are separate tests of the same structure; such repeats can differ widely. A dash means the value is not listed here; it may have been measured.

SMILES	CoaBC	MtTrpRS	ClpP1P2	LiHisRS	TcHisRS
Cc1cnn(C2CCCN(C(=O)Cc3ccc(C#N)cc3)C2)c1 (centres undefined)	0.2611	-1.609	-28.05	12.07	7.91
CC(C)=CCC/C(C)=C/CN1CCN(C)C2(CCNC(=O)CC2)C1 (centres undefined)	-4.8	-8.497	0.06634	2.564	0
Cc1nn(C)c(C)c1C1CCCN1C(=O)CCNS(C)(=O)=O (centres undefined)	2.628	-6.526	11.22	15.38	5.714
CCNC(=O)N1CCc2ccc(NC(=O)NCc3ccsc3)cc21	5.725	-2.079	-14.82	31.71	10.1
CCN(C(=O)Nc1cccnc1OC)C1CC1	2.169	-1.359	11.11	13.7	1.527
Cc1sc2nc(CCN)nc(N3CCN(S(C)(=O)=O)CC3)c2c1C	-18.8	-2.952	5.811	-10.26	11.49
CCN1CCN(C(=O)C(C)N2CCN(Cc3nccn3C)CC2)CC1 (centres undefined)	6.071	0.2915	7.874	6.154	-1.916
CCCn1ccnc1CN1CCC(Oc2ccc(Cl)cc2)(C(=O)O)CC1	2.808	4.15	-4.437	13.22	3.361
CC(C)C(C)(C#N)NC(=O)Cn1cc(C(N)=O)c(-c2ccccc2)n1 (centres undefined)	8.466 & 20.29	0.4471	7.005	21.92	1.093
CCc1cnc(C)nc1NCCN1CCOCC1	-0.8157	-1.687	-3.765	26.03	6.931
CC(=O)N1N=C(c2ccccc2)OC1C(=O)NCCc1cccc(Cl)c1 (centres undefined)	10.34	-2.083	4.283	17.14	0
Cc1cc(CNC(=O)NCc2cccs2)ccc1S(C)(=O)=O	-0.7335	-2.428	-10.85	9.677	-8.247
O=C(NCCN1CCCCC1)c1nc(-c2ccc3cc[nH]c3c2)no1	2.826	-0.201	9.189	15.53	0.5464
CN(Cc1ccc(F)c2cccnc12)C1CCS(=O)(=O)C1 (centres undefined)	4.487	-2.91	1.345	23.29	2.956
CN(Cc1nccn1C)S(=O)(=O)c1cccc(C#N)c1	-	0.516	5.667	22.86	2.597
COCc1ncn2c1CN(C(=O)c1ccc[nH]1)CC2	-27.9	0.2722	-26.01	33.33	8.411
CC(NC(=O)NCc1cc(Br)cs1)c1ccccn1 (centres undefined)	-9.383	1.42	-15.36	15.38	7.692
CC(=O)NCCC(=O)NCC1(c2c(F)cccc2F)CCCC1	7.09	2.534	9.669	13.7	5.464
CNC(=O)[C@@H]1[C@H]2CNCCN2C[C@H]1c1ccccc1	-1.695	-	-9.586	2.041	3.371
COCC1CCCN(C(=O)c2ccccc2NCc2cccnc2)C1 (centres undefined)	1.157	-2.496	14.81	10.2	4
c1ccc(-c2cc(CNCCCN3CCCCC3)c3nnnn3c2)cc1	4.866	-0.2899	-3.817	-1.053	9.701
COC(=O)CCn1ccc(=O)c2cc(OC)ccc21	-1.965	-0.6461	15.4	7.143	2.632
O=C(O)CC(NC(=O)c1ccccc1OC(F)F)c1cccs1 (centres undefined)	3.435	3.962	-4.144	6.087	-3.38
COCCC(=O)N1CCN(CC2CC2)c2ncccc2C1	-0.1236	9.477	18.18	13	9.184
CC(C)c1cc(NC(=O)CN2CCCC(Cn3cncn3)C2)on1 (centres undefined)	-	14.55	1.413	37.14	2.597
COc1ccc(C(=O)C2CCCN(Cc3cc(C)n[nH]3)C2)c(OC)c1 (centres undefined)	2.043	0.2472	-21.15	10.39	-4.848
CN(CCO)C[C@@H]1CN(C(=O)c2cccc(OC(F)F)c2)C[C@@H]1CO	3.008	-0.5869	3.005	15.73	3.518
c1cc(-c2cc(C3CCN(Cc4cncnc4)C3)ccn2)ccn1 (centres undefined)	-1.831	2.948	0.8242	21.13	12.71
CCOCCN1CCn2c(C)nnc2C1	3.133	-1.462	15.15	13.51	4.887
OC1CCN(c2ccccc2NCc2nc(-c3ccoc3)no2)CC1	-0.9662	4.727	10.62	-1.01	7.097
CC(Nc1ccc(F)cc1)c1nnnn1-c1ccccc1 (centres undefined)	1.152	5.398	-12.16	9.877	6.748
O=C(N1CCSCC1)C1(O)Cc2ccccc2C1	13.55	1.242	-11.1	24.66	-1.053
c1csc(-c2noc(CNCCn3cccn3)n2)c1	-0.6519	4.066	8.791	2.632	4.046
Cn1ccnc1C(O)(CCNCc1ccco1)C(F)(F)F (centres undefined)	7.317	9.349	-8.153	7.563	-0.9804
CCc1nc(C2CCCN2C(=O)c2ncoc2CC)no1 (centres undefined)	1.813	-1.559	11.23	4.255	1.527
Cc1nnc(CN(C)CC(=O)NCCc2ccc(F)cc2)n1C	1.284	2.637	14.53	10	4.348
Cn1cccc1CN1CCC2(CC1)CCN(C(=O)c1cnccn1)CC2	-9.368	8.038	-6.576	-1.754	5.464
CC(=O)N(Cc1noc(C2CC2)n1)C1CCN(Cc2ccccn2)C1 (centres undefined)	1.405	-3.742	-31.86	11.61	4.624
CC(C)CCn1ccc(NC(=O)N2CCCC2CN2CCOCC2)n1 (centres undefined)	-1.339	-2.58	1.567	2.083	2.762
O=C(O)C(c1ccc2c(c1)OCCO2)N1CCCCCC1 (centres undefined)	-5.357	-1.599	1.533	18.45	5.394
O=C(CCN1CCOCC1)NC(Cc1ccsc1)c1nccs1 (centres undefined)	-11.1	-5.277	-23.45	8.451	0
O=C(NCc1cc(N2CCOCC2)ncn1)c1cccc(CO)n1	0	-3.311	-6.429	2.083	7.595
CCCC1(CO)CCCN(C(=O)CCCn2nc(C)cc2C)C1 (centres undefined)	0.9828	1.41	0.02695	-21.51	-1.235
O=C(NCCn1ccnc1)N1CCCN(Cc2cccs2)CC1	2.628	0	-8.967	9.615	-7.429

Once more, the final 5:

Result for O=C(O)C(c1ccc2c(c1)OCCO2)N1CCCCCC1 (centres undefined) was CoaBC: -5.357%; MtTrpRS: -1.599%; ClpP1P2: 1.533%; LiHisRS: 18.45%; TcHisRS: 5.394%.
Result for O=C(CCN1CCOCC1)NC(Cc1ccsc1)c1nccs1 (centres undefined) was CoaBC: -11.1%; MtTrpRS: -5.277%; ClpP1P2: -23.45%; LiHisRS: 8.451%; TcHisRS: 0%.
Result for O=C(NCc1cc(N2CCOCC2)ncn1)c1cccc(CO)n1 was CoaBC: 0%; MtTrpRS: -3.311%; ClpP1P2: -6.429%; LiHisRS: 2.083%; TcHisRS: 7.595%.
Result for CCCC1(CO)CCCN(C(=O)CCCn2nc(C)cc2C)C1 (centres undefined) was CoaBC: 0.9828%; MtTrpRS: 1.41%; ClpP1P2: 0.02695%; LiHisRS: -21.51%; TcHisRS: -1.235%.
Result for O=C(NCCn1ccnc1)N1CCCN(Cc2cccs2)CC1 was CoaBC: 2.628%; MtTrpRS: 0%; ClpP1P2: -8.967%; LiHisRS: 9.615%; TcHisRS: -7.429%.